No constants are given. Whether binding was seen depends on the method and setting.
Target: Aura virus capsid protease (C-terminal protease domain of the capsid protein, residues 110-267) (Aura virus) (UniProt Q86925)
Experiment: crystal structure; AVCP apo and dioxane-soaked crystals, space group C2, one molecule per asymmetric unit; crystals grown in 28% w/v PEG monomethyl ether 2000, 100 mM Bis-Tris pH 6.5, 20°C; both purified

The chains behind the UniProt entries cited, without tags or fusion partners. Residues count along the entry.
UniProt Q86925, residues 110-267: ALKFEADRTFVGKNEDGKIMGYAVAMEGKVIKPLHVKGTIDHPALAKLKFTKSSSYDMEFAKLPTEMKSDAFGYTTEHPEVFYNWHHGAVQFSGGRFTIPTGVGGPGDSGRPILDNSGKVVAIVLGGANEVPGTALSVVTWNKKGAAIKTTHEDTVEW

For “Aura virus capsid protease (C-terminal protease domain of the capsid protein, residues 110-267) (from UniProt Q86925 110-267) (domain or fragment)”, the binding was “no binding”.

From article PMC3522669
